These are yes or no findings as the source states them, for the method shown. Some entries that bind do so weakly or less than the wild type.
Experiments:
[1] = target: T1, human PDGF-C peptide no. 3 (human); test: peptide ELISA
T1 sequence (peptide, N-terminally biotinylated): SSNKEQNGVQDPQHE

Amino acid sequences for entries named in this document (tags omitted). Residues count along the entry.
UniProt Q9NRA1, residues 23-345: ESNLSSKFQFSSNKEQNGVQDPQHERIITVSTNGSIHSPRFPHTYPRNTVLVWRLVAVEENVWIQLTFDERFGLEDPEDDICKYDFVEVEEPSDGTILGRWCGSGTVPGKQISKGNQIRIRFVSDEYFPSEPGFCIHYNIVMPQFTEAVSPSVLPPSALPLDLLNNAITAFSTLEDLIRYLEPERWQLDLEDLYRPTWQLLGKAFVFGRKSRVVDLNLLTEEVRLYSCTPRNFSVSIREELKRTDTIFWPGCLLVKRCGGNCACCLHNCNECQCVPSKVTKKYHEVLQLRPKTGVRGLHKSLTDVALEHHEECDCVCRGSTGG

[2] = target: T2, human PDGF-C peptide no. 5 (human); test: peptide ELISA
T2 sequence (peptide, N-terminally biotinylated): DPQHERIITVSTNGS

[3] = target: T3, human PDGF-C peptide no. 15 (human); test: peptide ELISA
T3 sequence (peptide, N-terminally biotinylated): RFGLEDPEDDICKYD

[4] = target: T4, human PDGF-C peptide no. 24 (human); test: peptide ELISA
T4 sequence (peptide, N-terminally biotinylated): NQIRIRFVSDEYFPS

[5] = target: T5, human PDGF-C peptide no. 43 (human); test: peptide ELISA
T5 sequence (peptide, N-terminally biotinylated): SRVVDLNLLTEEVRL

[6] = target: T6, human PDGF-C peptide no. 47 (human); test: peptide ELISA
T6 sequence (peptide, N-terminally biotinylated): RNFSVSIREELKRTD

[7] = target: T7, human PDGF-C peptide no. 25 (human); test: peptide ELISA
T7 sequence (peptide, N-terminally biotinylated): RFVSDEYFPSEPGFC

[8] = target: T8, human PDGF-C peptide no. 57 (human); test: peptide ELISA
T8 sequence (peptide, N-terminally biotinylated): KKYHEVLQLRPKTGV

[9] = target: T9, human PDGF-C peptide no. 42 (human); test: peptide ELISA
T9 sequence (peptide, N-terminally biotinylated): VFGRKSRVVDLNLLT

[10] = target: T10, human PDGF-C peptide no. 10 (human); test: peptide ELISA
T10 sequence (peptide, N-terminally biotinylated): PRNTVLVWRLVAVEE

[11] = target: T11, human PDGF-C peptide no. 39 (human); test: peptide ELISA
T11 sequence (peptide, N-terminally biotinylated): EDLYRPTWQLLGKAF

[12] = target: T12, human PDGF-C peptide no. 2 (human); test: peptide ELISA
T12 sequence (peptide, N-terminally biotinylated): SKFQFSSNKEQNGVQ

[13] = target: T13, human PDGF-C peptide no. 23 (human); test: peptide ELISA
T13 sequence (peptide, N-terminally biotinylated): QISKGNQIRIRFVSD

[14] = target: T14, human PDGF-C peptide no. 48 (human); test: peptide ELISA
T14 sequence (peptide, N-terminally biotinylated): SIREELKRTDTIFWP

[15] = target: T15, human PDGF-C peptide no. 17 (human); test: peptide ELISA
T15 sequence (peptide, N-terminally biotinylated): ICKYDFVEVEEPSDG

[16] = target: T16, human PDGF-C peptide no. 30 (human); test: peptide ELISA
T16 sequence (peptide, N-terminally biotinylated): TEAVSPSVLPPSALP

[17] = target: T17, human PDGF-C peptide no. 44 (human); test: peptide ELISA
T17 sequence (peptide, N-terminally biotinylated): LNLLTEEVRLYSCTP

[18] = target: T18, human PDGF-C peptide no. 46 (human); test: peptide ELISA
T18 sequence (peptide, N-terminally biotinylated): YSCTPRNFSVSIREE

[19] = target: T19, human PDGF-C peptide no. 54 (human); test: peptide ELISA
T19 sequence (peptide, N-terminally biotinylated): LHNCNECQCVPSKVT

[20] = target: T20, human PDGF-C peptide no. 34 (human); test: peptide ELISA
T20 sequence (peptide, N-terminally biotinylated): NAITAFSTLEDLIRY

[21] = target: T21, human PDGF-C peptide no. 53 (human); test: peptide ELISA
T21 sequence (peptide, N-terminally biotinylated): NCACCLHNCNECQCV

[22] = target: T22, human PDGF-C peptide no. 63 (human); test: peptide ELISA
T22 sequence (peptide, N-terminally biotinylated): EECDCVCRGSTGG

[23] = target: T23, human PDGF-C peptide no. 38 (human); test: peptide ELISA
T23 sequence (peptide, N-terminally biotinylated): WQLDLEDLYRPTWQL

[24] = target: T24, human PDGF-C peptide no. 62 (human); test: peptide ELISA
T24 sequence (peptide, N-terminally biotinylated): ALEHHEECDCVCRGS

[25] = target: T25, human PDGF-C peptide no. 19 (human); test: peptide ELISA
T25 sequence (peptide, N-terminally biotinylated): EPSDGTILGRWCGSG

[26] = target: T26, human PDGF-C peptide no. 50 (human); test: peptide ELISA
T26 sequence (peptide, N-terminally biotinylated): TIFWPGCLLVKRCGG

[27] = target: T27, human PDGF-C peptide no. 12 (human); test: peptide ELISA
T27 sequence (peptide, N-terminally biotinylated): VAVEENVWIQLTFDE

[28] = target: T28, human PDGF-C peptide no. 20 (human); test: peptide ELISA
T28 sequence (peptide, N-terminally biotinylated): TILGRWCGSGTVPGK

[29] = target: T29, human PDGF-C peptide no. 14 (human); test: peptide ELISA
T29 sequence (peptide, N-terminally biotinylated): LTFDERFGLEDPEDD

[30] = target: T30, human PDGF-C peptide no. 59 (human); test: peptide ELISA
T30 sequence (peptide, N-terminally biotinylated): PKTGVRGLHKSLTDV

[31] = target: T31, human PDGF-C peptide no. 32 (human); test: peptide ELISA
T31 sequence (peptide, N-terminally biotinylated): PSALPLDLLNNAITA

[32] = target: T32, human PDGF-C peptide no. 7 (human); test: peptide ELISA
T32 sequence (peptide, N-terminally biotinylated): STNGSIHSPRFPHTY

[33] = target: T33, human PDGF-C peptide no. 51 (human); test: peptide ELISA
T33 sequence (peptide, N-terminally biotinylated): GCLLVKRCGGNCACC

[34] = target: T34, human PDGF-C peptide no. 1 (human); test: peptide ELISA
T34 sequence (peptide, N-terminally biotinylated): ESNLSSKFQFSSNKE

[35] = target: T35, human PDGF-C peptide no. 55 (human); test: peptide ELISA
T35 sequence (peptide, N-terminally biotinylated): ECQCVPSKVTKKYHE

[36] = target: T36, human PDGF-C peptide no. 33 (human); test: peptide ELISA
T36 sequence (peptide, N-terminally biotinylated): LDLLNNAITAFSTLE

[37] = target: T37, human PDGF-C peptide no. 29 (human); test: peptide ELISA
T37 sequence (peptide, N-terminally biotinylated): VMPQFTEAVSPSVLP

[38] = target: T38, human PDGF-C peptide no. 60 (human); test: peptide ELISA
T38 sequence (peptide, N-terminally biotinylated): RGLHKSLTDVALEHH

[39] = target: T39, human PDGF-C peptide no. 37 (human); test: peptide ELISA
T39 sequence (peptide, N-terminally biotinylated): LEPERWQLDLEDLYR

[40] = target: T40, human PDGF-C peptide no. 40 (human); test: peptide ELISA
T40 sequence (peptide, N-terminally biotinylated): PTWQLLGKAFVFGRK

[41] = target: T41, human PDGF-C peptide no. 36 (human); test: peptide ELISA
T41 sequence (peptide, N-terminally biotinylated): DLIRYLEPERWQLDL

[42] = target: T42, human PDGF-C peptide no. 28 (human); test: peptide ELISA
T42 sequence (peptide, N-terminally biotinylated): IHYNIVMPQFTEAVS

[43] = target: T43, human PDGF-C peptide no. 4 (human); test: peptide ELISA
T43 sequence (peptide, N-terminally biotinylated): QNGVQDPQHERIITV

[44] = target: T44, human PDGF-C peptide no. 6 (human); test: peptide ELISA
T44 sequence (peptide, N-terminally biotinylated): RIITVSTNGSIHSPR

[45] = target: T45, human PDGF-C peptide no. 49 (human); test: peptide ELISA
T45 sequence (peptide, N-terminally biotinylated): LKRTDTIFWPGCLLV

[46] = target: T46, human PDGF-C peptide no. 11 (human); test: peptide ELISA
T46 sequence (peptide, N-terminally biotinylated): LVWRLVAVEENVWIQ

[47] = target: T47, human PDGF-C peptide no. 56 (human); test: peptide ELISA
T47 sequence (peptide, N-terminally biotinylated): PSKVTKKYHEVLQLR

[48] = target: T48, human PDGF-C peptide no. 52 (human); test: peptide ELISA
T48 sequence (peptide, N-terminally biotinylated): KRCGGNCACCLHNCN

[49] = target: T49, human PDGF-C peptide no. 41 (human); test: peptide ELISA
T49 sequence (peptide, N-terminally biotinylated): LGKAFVFGRKSRVVD

[50] = target: T50, human PDGF-C peptide no. 13 (human); test: peptide ELISA
T50 sequence (peptide, N-terminally biotinylated): NVWIQLTFDERFGLE

[51] = target: T51, human PDGF-C peptide no. 35 (human); test: peptide ELISA
T51 sequence (peptide, N-terminally biotinylated): FSTLEDLIRYLEPER

[52] = target: T52, human PDGF-C peptide no. 16 (human); test: peptide ELISA
T52 sequence (peptide, N-terminally biotinylated): DPEDDICKYDFVEVE

[53] = target: T53, human PDGF-C peptide no. 8 (human); test: peptide ELISA
T53 sequence (peptide, N-terminally biotinylated): IHSPRFPHTYPRNTV

[54] = target: T54, human PDGF-C peptide no. 45 (human); test: peptide ELISA
T54 sequence (peptide, N-terminally biotinylated): EEVRLYSCTPRNFSV

[55] = target: T55, human PDGF-C peptide no. 18 (human); test: peptide ELISA
T55 sequence (peptide, N-terminally biotinylated): FVEVEEPSDGTILGR

[56] = target: T56, human PDGF-C peptide no. 22 (human); test: peptide ELISA
T56 sequence (peptide, N-terminally biotinylated): TVPGKQISKGNQIRI

[57] = target: T57, human PDGF-C peptide no. 21 (human); test: peptide ELISA
T57 sequence (peptide, N-terminally biotinylated): WCGSGTVPGKQISKG

[58] = target: T58, human PDGF-C peptide no. 26 (human); test: peptide ELISA
T58 sequence (peptide, N-terminally biotinylated): EYFPSEPGFCIHYNI

[59] = target: T59, human PDGF-C peptide no. 31 (human); test: peptide ELISA
T59 sequence (peptide, N-terminally biotinylated): PSVLPPSALPLDLLN

[60] = target: full-length human PDGF-C (Example 6) (human) (UniProt Q9NRA1); test: ELISA

B1: anti-PDGF-C antibody 5A2 (antibody, IgG2b, V domains shown)
VH: EVQLVESGGDLVKPGGSLKLSCAASGFTFSNYGMSWVRQTPDKRLEWVATIGSGGHYTYYPDSVKGRFTISRDSAKSTLYLQMSSLKSEDTAIYYCARQAPLWDCSDYWGQGTTLTVSS
VL: DVLMTQTPLSLPVSLGDQASISCRSNQSIVHSNGDTYLEWYLQKPGQSPKLLIYKVSNRFSGVPDRFSGSGSGTDFTLKISRVEAEDLGVYYCFQGSHVPPTFGGGTKLEIK
notes: Mouse monoclonal from hybridoma, IgG2b, kappa; also called mAb 5A2; hybridoma LMBP 9484CB
For B1, the binding [1] was “no binding (tested: 1 µg/mL)”, the binding [2] was “no binding (tested: 1 µg/mL)” and the binding [3] was “no binding (tested: 1 µg/mL)”. The binding [4] was “no binding (tested: 1 µg/mL)”, the binding [5] was “no binding (tested: 1 µg/mL)” and the binding [6] was “no binding (tested: 1 µg/mL)”. For the same binder, the binding [7] was “no binding (tested: 1 µg/mL)”, the binding [8] was “no binding (tested: 1 µg/mL)” and the binding [9] was “no binding (tested: 1 µg/mL)”. For the same binder, the binding [10] was “no binding (tested: 1 µg/mL)”, the binding [11] was “no binding (tested: 1 µg/mL)” and the binding [12] was “no binding (tested: 1 µg/mL)”. For the same binder, the binding [13] was “no binding (tested: 1 µg/mL)”, the binding [14] was “no binding (tested: 1 µg/mL)” and the binding [15] was “no binding (tested: 1 µg/mL)”. For the same binder, the binding [16] was “no binding (tested: 1 µg/mL)”, the binding [17] was “no binding (tested: 1 µg/mL)” and the binding [18] was “no binding (tested: 1 µg/mL)”. For the same binder, the binding [19] was “no binding (tested: 1 µg/mL)”, the binding [20] was “no binding (tested: 1 µg/mL)” and the binding [21] was “no binding (tested: 1 µg/mL)”. The binding [22] was “no binding (tested: 1 µg/mL)”, the binding [23] was “no binding (tested: 1 µg/mL)” and the binding [24] was “no binding (tested: 1 µg/mL)”. For the same binder, the binding [25] was “no binding (tested: 1 µg/mL)”, the binding [26] was “no binding (tested: 1 µg/mL)” and the binding [27] was “no binding (tested: 1 µg/mL)”. For the same binder, the binding [28] was “no binding (tested: 1 µg/mL)”, the binding [29] was “no binding (tested: 1 µg/mL)” and the binding [30] was “no binding (tested: 1 µg/mL)”. The binding [31] was “no binding (tested: 1 µg/mL)”, the binding [32] was “no binding (tested: 1 µg/mL)” and the binding [33] was “no binding (tested: 1 µg/mL)”. For the same binder, the binding [34] was “no binding (tested: 1 µg/mL)”, the binding [35] was “no binding (tested: 1 µg/mL)” and the binding [36] was “no binding (tested: 1 µg/mL)”. The binding [37] was “no binding (tested: 1 µg/mL)”, the binding [38] was “no binding (tested: 1 µg/mL)” and the binding [39] was “no binding (tested: 1 µg/mL)”. For the same binder, the binding [40] was “no binding (tested: 1 µg/mL)”, the binding [41] was “no binding (tested: 1 µg/mL)” and the binding [42] was “no binding (tested: 1 µg/mL)”. The binding [43] was “no binding (tested: 1 µg/mL)”, the binding [44] was “no binding (tested: 1 µg/mL)” and the binding [45] was “no binding (tested: 1 µg/mL)”. The binding [46] was “no binding (tested: 1 µg/mL)”, the binding [47] was “no binding (tested: 1 µg/mL)” and the binding [48] was “no binding (tested: 1 µg/mL)”. The binding [49] was “no binding (tested: 1 µg/mL)”, the binding [50] was “no binding (tested: 1 µg/mL)” and the binding [51] was “no binding (tested: 1 µg/mL)”. The binding [52] was “no binding (tested: 1 µg/mL)”, the binding [53] was “no binding (tested: 1 µg/mL)” and the binding [54] was “no binding (tested: 1 µg/mL)”. The binding [55] was “no binding (tested: 1 µg/mL)”, the binding [56] was “no binding (tested: 1 µg/mL)” and the binding [57] was “no binding (tested: 1 µg/mL)”. For the same binder, the binding [58] was “no binding (tested: 1 µg/mL)”, the binding [59] was “no binding (tested: 1 µg/mL)” and the binding [60] was “binds”.

From patent publication US20150232546A1 (THROMBOGENICS, published 2015)
